Laboratory results published in the supplement of paper PMC12067093, “Discovery and optimisation of a covalent ligand for TRIM25 and its application to targeted protein ubiquitination” (Chemical Science, 2025).
The other results are listed elsewhere or left out.

Protein sequences, listed by entry. Tags and fused reporters are not part of them. Lines headed by an entry give the natural chain unless they say otherwise; changes in a name come on top.
UniProt O95782: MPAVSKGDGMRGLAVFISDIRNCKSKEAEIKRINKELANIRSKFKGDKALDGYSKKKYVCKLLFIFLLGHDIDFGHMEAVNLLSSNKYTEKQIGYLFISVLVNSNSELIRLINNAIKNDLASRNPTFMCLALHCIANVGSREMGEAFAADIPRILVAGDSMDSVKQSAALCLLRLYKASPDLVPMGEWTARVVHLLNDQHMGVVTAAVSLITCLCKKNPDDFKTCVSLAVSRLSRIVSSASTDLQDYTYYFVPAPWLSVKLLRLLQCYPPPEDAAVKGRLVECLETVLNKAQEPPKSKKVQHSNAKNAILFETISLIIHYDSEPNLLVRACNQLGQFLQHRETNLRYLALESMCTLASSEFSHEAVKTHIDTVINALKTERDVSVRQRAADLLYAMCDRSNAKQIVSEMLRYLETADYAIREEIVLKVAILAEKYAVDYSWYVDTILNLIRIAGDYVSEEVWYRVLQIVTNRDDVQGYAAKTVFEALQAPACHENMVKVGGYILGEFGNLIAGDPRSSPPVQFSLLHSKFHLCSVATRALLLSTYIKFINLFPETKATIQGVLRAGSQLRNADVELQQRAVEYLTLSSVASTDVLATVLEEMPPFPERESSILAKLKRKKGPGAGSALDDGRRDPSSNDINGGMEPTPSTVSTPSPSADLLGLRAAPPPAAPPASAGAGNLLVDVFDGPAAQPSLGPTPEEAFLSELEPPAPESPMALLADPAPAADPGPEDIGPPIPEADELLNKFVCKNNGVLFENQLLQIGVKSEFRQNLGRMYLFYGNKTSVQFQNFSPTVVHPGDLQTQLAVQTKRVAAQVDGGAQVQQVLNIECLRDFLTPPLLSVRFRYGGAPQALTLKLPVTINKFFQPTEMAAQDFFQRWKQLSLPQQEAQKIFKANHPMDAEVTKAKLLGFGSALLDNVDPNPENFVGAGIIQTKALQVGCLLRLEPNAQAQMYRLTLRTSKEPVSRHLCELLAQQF
UniProt P08133: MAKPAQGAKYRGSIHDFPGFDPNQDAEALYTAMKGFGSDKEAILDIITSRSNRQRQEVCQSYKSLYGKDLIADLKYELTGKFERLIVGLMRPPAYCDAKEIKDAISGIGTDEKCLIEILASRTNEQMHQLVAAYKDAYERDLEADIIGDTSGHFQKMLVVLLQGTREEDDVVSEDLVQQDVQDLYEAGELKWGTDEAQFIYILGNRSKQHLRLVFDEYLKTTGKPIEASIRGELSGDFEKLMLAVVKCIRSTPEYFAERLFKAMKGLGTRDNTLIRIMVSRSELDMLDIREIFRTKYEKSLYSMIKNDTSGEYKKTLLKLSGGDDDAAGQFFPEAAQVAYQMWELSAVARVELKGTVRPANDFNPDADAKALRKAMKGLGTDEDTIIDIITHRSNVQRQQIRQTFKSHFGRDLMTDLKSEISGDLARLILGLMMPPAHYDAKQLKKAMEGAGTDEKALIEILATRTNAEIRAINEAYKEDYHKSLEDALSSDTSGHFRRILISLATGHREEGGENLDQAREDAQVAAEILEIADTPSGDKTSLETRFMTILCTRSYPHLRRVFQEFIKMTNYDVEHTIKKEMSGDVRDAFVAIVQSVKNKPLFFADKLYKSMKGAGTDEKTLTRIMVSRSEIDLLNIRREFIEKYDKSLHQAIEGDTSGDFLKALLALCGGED
UniProt O75843: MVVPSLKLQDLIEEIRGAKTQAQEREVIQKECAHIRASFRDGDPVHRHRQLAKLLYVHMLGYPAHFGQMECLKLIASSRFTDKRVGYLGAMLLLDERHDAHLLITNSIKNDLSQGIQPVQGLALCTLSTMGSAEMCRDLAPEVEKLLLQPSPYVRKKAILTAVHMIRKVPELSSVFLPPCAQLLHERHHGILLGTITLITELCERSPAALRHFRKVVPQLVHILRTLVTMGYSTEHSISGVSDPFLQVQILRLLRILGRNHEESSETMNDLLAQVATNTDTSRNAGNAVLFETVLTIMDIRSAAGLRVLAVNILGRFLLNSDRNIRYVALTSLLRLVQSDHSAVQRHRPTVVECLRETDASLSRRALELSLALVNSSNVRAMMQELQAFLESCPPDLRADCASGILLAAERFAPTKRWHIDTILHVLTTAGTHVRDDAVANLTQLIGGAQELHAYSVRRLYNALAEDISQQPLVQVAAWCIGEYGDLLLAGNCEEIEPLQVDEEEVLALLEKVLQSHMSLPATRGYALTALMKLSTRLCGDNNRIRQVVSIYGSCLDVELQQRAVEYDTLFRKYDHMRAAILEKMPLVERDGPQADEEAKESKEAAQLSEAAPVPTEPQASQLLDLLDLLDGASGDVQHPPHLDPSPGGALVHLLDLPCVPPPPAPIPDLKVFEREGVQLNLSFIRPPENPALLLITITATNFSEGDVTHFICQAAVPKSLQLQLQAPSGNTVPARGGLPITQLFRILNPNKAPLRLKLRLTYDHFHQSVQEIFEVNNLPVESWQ
UniProt Q8N8A2: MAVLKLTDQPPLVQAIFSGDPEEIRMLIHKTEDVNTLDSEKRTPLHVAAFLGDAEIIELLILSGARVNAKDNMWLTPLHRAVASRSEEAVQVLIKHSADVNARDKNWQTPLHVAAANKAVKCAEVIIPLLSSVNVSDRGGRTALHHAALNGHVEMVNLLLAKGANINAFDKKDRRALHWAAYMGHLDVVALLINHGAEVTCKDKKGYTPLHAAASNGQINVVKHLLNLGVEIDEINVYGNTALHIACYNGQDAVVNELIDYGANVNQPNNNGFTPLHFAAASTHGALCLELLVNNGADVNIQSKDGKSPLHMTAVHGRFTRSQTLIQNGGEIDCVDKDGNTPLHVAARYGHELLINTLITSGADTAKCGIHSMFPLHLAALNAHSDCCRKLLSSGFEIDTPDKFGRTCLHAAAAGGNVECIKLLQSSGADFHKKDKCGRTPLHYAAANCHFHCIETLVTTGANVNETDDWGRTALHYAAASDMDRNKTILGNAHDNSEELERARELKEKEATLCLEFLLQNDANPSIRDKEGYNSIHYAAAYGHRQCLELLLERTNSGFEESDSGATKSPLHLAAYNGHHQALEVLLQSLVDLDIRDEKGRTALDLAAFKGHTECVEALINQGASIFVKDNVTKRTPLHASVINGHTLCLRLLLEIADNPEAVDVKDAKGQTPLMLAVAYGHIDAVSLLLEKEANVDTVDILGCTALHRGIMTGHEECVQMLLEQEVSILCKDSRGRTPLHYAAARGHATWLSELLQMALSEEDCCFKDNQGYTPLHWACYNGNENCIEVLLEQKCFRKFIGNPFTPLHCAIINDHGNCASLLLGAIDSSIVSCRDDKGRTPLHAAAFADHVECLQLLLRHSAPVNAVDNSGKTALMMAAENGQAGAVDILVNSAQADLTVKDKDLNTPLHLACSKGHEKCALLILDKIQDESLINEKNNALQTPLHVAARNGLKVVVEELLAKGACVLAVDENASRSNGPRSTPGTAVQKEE
UniProt P63010: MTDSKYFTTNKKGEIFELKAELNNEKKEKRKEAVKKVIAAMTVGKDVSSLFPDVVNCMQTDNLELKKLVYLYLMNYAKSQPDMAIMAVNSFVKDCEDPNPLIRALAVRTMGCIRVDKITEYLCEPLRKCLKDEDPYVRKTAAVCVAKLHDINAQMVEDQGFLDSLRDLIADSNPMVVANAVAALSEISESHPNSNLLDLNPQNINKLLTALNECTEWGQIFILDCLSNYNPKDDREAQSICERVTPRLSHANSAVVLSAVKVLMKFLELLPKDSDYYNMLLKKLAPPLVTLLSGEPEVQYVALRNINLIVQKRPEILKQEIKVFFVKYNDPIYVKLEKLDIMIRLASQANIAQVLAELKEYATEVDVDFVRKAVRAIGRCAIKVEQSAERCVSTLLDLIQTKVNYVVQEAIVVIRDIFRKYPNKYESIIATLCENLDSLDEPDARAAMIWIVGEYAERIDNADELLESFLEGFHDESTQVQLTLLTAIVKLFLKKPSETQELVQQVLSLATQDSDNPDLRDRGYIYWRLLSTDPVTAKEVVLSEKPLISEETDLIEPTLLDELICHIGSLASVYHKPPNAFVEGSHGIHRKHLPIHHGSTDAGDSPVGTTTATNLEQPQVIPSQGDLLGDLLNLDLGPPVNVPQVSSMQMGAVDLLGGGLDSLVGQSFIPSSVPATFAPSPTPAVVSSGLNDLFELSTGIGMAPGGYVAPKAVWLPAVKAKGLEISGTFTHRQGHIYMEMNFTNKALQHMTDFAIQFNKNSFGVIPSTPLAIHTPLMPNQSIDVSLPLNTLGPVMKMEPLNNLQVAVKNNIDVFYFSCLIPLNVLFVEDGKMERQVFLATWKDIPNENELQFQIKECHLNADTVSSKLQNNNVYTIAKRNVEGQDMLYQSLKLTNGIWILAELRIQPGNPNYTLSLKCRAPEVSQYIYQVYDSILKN
UniProt Q9NQW6: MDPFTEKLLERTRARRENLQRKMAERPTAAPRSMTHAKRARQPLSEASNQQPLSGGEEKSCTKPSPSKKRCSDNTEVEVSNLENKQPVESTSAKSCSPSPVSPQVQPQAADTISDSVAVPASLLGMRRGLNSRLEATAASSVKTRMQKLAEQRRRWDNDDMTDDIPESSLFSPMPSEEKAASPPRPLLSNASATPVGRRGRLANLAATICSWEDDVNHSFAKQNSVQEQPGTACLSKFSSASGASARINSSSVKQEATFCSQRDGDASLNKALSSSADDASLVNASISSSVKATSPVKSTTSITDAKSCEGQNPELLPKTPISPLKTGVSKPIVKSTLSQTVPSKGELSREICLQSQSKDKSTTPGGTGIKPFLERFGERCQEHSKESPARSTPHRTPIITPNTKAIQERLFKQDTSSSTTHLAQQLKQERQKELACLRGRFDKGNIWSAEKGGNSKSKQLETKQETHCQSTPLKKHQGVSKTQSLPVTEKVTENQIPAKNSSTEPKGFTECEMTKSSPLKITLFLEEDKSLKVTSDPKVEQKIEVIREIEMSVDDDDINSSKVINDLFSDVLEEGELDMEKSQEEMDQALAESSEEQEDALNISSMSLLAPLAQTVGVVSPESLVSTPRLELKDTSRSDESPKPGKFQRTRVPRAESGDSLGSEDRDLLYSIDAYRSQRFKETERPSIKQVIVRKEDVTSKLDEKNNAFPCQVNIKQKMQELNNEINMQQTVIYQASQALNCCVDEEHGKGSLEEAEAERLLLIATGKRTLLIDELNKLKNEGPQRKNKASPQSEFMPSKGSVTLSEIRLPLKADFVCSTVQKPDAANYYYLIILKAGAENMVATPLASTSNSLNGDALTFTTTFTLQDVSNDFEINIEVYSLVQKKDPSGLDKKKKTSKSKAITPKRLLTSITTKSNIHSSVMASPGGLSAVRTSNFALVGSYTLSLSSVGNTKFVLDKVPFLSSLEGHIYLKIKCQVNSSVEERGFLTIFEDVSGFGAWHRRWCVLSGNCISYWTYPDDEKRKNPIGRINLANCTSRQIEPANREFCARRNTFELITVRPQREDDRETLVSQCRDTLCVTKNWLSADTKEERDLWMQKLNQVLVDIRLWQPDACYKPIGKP
UniProt O43299: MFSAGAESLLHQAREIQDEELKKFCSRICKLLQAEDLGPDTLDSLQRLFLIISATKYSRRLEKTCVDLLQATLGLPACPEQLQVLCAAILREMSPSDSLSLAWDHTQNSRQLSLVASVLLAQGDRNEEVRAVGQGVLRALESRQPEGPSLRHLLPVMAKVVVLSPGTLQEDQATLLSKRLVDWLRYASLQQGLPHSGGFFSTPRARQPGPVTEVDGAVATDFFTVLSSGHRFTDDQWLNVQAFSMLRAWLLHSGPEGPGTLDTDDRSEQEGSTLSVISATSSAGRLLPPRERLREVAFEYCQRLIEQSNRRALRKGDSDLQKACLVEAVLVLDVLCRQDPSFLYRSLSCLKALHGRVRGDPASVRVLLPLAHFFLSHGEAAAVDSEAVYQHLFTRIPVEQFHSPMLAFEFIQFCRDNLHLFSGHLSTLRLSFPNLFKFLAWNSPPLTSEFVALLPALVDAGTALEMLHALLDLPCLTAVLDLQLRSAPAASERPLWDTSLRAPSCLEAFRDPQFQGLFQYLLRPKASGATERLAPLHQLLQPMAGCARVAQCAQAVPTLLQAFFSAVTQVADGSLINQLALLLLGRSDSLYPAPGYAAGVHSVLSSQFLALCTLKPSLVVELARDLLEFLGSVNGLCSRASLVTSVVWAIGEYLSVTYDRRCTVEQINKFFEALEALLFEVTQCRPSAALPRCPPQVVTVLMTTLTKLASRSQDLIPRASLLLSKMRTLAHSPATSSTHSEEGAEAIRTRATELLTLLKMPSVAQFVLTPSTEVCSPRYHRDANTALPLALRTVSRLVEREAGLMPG

Compound: CC1Cc2ccccc2N1C(=O)C1CCCN(C1)C(=O)CCl (mixture of isomers) [TRIM25 ligand 11 (diastereomer mixture)]
Experiment: probe-labelled cysteine peptide fold change vs DMSO (competition) (log2 fold change); higher = less target engagement (more negative = stronger competition)
Details: THP-1, incubation time: 4 h
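Also: competitive chemoproteomic profiling in live THP-1 cells with an iodoacetamide desthiobiotin (IA-DTB) probe, comparing probe-labelled peptide intensities in compound-treated cells against DMSO-treated controls.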

Row | Target | probe-labelled cysteine peptide fold change (10 µM) | probe-labelled cysteine peptide fold change (50 µM)
1 | APMAP_Q9HDC9_149_DDEPVCGR (UniProt Q9HDC9) | 0.107 | 0.138
2 | AP2A1_O95782_533_FHLCSVATR (UniProt O95782) | -0.022 | 0.171
3 | ANXA6_P08133_114_CLIEILASR (UniProt P08133) | 0.0493 | 0.0263
4 | AP3D1_O14617_935_MTCDIR (UniProt O14617) | -0.0922 | 0.0455
5 | AP1G2_O75843_354_HRPTVVECLR (UniProt O75843) | -0.0584 | -0.0218
6 | ANKMY2_Q8IV38_205_VMDLICEK (UniProt Q8IV38) | -0.069 | 0.0512
7 | ANKRD44_Q8N8A2_731_GIMTGHEECVQMLLEQEVSILCK (UniProt Q8N8A2) | -0.172 | -0.159
8 | AP2B1_P63010_241_EAQSICER (UniProt P63010) | -0.0689 | -0.153
9 | ANLN_Q9NQW6_210_LANLAATICSWEDDVNHSFAK (UniProt Q9NQW6) | -0.159 | 0.299
10 | ANKLE2_Q86XL3_844_LDQDVLAALECADVDPHQFPAVHR (UniProt Q86XL3) | 0.0361 | -0.0206
11 | ANKRD44_Q8N8A2_615_GHTECVEALINQGASIFVK (UniProt Q8N8A2) | -0.0146 | 0.0676
12 | ANKLE1_Q8NAG6_124_GLELLLSQGADPALRDQDGLRPLDLALQQGHLECAR (UniProt Q8NAG6) | -0.0578 | 0.0137
13 | ANKRD44_Q8N8A2_649_TPLHASVINGHTLCLR (UniProt Q8N8A2) | 0.297 | 0.203
14 | ANXA6_P08133_552_FMTILCTR (UniProt P08133) | -0.039 | 0.00359
15 | AP2B1_P63010_95_DCEDPNPLIR (UniProt P63010) | 0.00497 | 0.155
16 | ANKRD28_O15084_598_GHVECVDVLINQGASILVK (UniProt O15084) | -0.00834 | -0.0665
17 | ANTXR1_Q9H6X2_257_VLCSFK (UniProt Q9H6X2) | 0.067 | 0.257
18 | AP5Z1_O43299_546_LAPLHQLLQPMAGCAR (UniProt O43299) | 0.158 | 0.052
19 | AP2A1_O95782_397_AADLLYAMCDR (UniProt O95782) | 0.0823 | -0.0127
20 | ANKRD27_Q96NW4_899_IMELLQVVPSCVASLDDVAETDRK (UniProt Q96NW4) | 0.106 | -0.0858

Fetched one by one from the entries so far, 2 records:
Row | Target | probe-labelled cysteine peptide fold change (10 µM) | probe-labelled cysteine peptide fold change (50 µM)
5 | AP1G2_O75843_354_HRPTVVECLR (UniProt O75843) | -0.0584 | -0.0218
13 | ANKRD44_Q8N8A2_649_TPLHASVINGHTLCLR (UniProt Q8N8A2) | 0.297 | 0.203
